We go through 51 molecules from PMC12040169 (PLOS Biology, 2025).

The other results are listed elsewhere or left out.

For this experiment, the system named is T1, CTL2-GFP (C. trachomatis L2/434/Bu, GFP-expressing).
T1 construct: L2/434/Bu, GFP-expressing
Set-up: species or system HeLa; Intracellular C. trachomatis growth in HeLa cells, bulk GFP fluorescence relative to DMSO. The note with it: bulk GFP, single well; 28.5 h, 10 µM; inhibitor.
Regarding `CN1CCN(c2nccnc2-c2cccnc2)CC1` [CBK036612], the “% of control remaining” value stood at 130.46%. As to `O=C(CN1C(=O)N2CCN=C2c2ccccc21)NC1CCCC1` [CBK283959], the “% of control remaining” value was found to be 112.828%.

With `COc1ccc(Cl)cc1NC(=O)C(=O)NCC1CCCO1` (stereo not drawn) [CBK263823], the “% of control remaining” value is 100%. Consider `O=C(O)c1cc(NC(=O)c2cccc(N3C(=O)c4ccccc4C3=O)c2)cc(C(=O)O)c1` [CBK263338], for which the “% of control remaining” value worked out at 116.982%. Then `Cc1cccc(Nc2nccc(-n3ccc(C)n3)n2)c1` [CBK288616], with 144.977%. The figure for `COc1cc(/C=C2\SC(=N)NC2=O)cc(Cl)c1OS(=O)(=O)c1ccc(NC(C)=O)cc1` [CBK264502] is 125.687%; for `COCCN1C(=O)CN(Cc2ccccc2)C1=O` [CBK162369] it is 157.5%; for `CC(C)C(NC(=O)CN1CSCC1=O)c1ccc(C(C)(C)C)cc1` (stereo not drawn) [CBK297899] it is 139.583%. The figure for `COc1ccc(-c2cc3cccn(CC(=O)N(C)C)c-3n2)cc1` [CBK285382] is 106.43%. Consider `CCOc1ccc(Cl)cc1S(=O)(=O)NCCO` [CBK269996], for which the “% of control remaining” value came out at 141.413%. With `Nc1nccnc1C(=O)N1CCN(C(=O)Cc2c[nH]c3ccccc23)CC1` [CBK298339], the “% of control remaining” value was 129.301%. Then `CCOc1ccccc1CNCc1ccccn1` [CBK268041C], with 103.471%. Then `Cc1ccc(C)c(OCCNCc2ccco2)c1Cl` [CBK269718C], with 162.847%; and `COc1ccc2[nH]c3c(c2c1)CCNC31CCN(CCC2CCCCC2)C1` (stereo not drawn) [CBK040111T], with 122.359%. Then `Cn1c(CCC(=O)Nc2c[nH]c3ccccc23)nc2ccccc21` [CBK282507], with 103.327%. On to `Oc1c2c(nn1Cc1ccccc1)CCCC2` [CBK089898], for which the “% of control remaining” value is reported as 131.013%. The figure for `COc1cc(CNC(=O)N2CCN(C3CCN(C)CC3)CC2)cc(OC)c1OC` [CBK155893] is 108.57%. Then `CCc1nn(CC(=O)N2CCCCC2)c(=O)c2cc3oc(C)cc3n12` [CBK283575], with 139.974%; and `CN(C)CC1CCCCN1C(=O)[C@@H]1C[C@@H]2C=C[C@H]1C2` (stereo partly drawn) [CBK282086], with 124.815%. Consider `CC(C)Nc1nccnc1-c1ccc(CO)cc1` [CBK088519], for which the “% of control remaining” value stood at 100.833%. The figure for `COCCOC1CN(Cc2cn(-c3ccc(Br)cc3)nc2C(C)C)C1` [CBK304852] is 115.165%. The figure for `c1ccc2nc(N3CCCC3)c(Sc3nccs3)nc2c1` [CBK093794] is 80.0935%; for `CC(C)N(Cc1cccnc1)C(=O)Cn1c(C2CC2)nc2ccccc21` [CBK306156] it is 102.846%; for `OCn1nc(-c2ccc(Cl)cc2Cl)oc1=S` [CBK288410] it is 99.1484%. Then `CCCN1CCC(CNC(=O)Cn2ccc3ccc(F)cc32)CC1` [CBK282573], with 126.596%; and `c1coc(-c2ccc(Nc3ccc4c(c3)OCCO4)nc2)c1` [CBK037765], with 149.936%; and `N#CCCN(CCc1ccccc1)S(=O)(=O)c1cccc2nsnc12` [CBK261138], with 116%.

In the case of `Cc1cc(NC(=O)COc2ccccc2)nc2c1c(=O)oc1ccccc12` [CBK287436], the “% of control remaining” value is reported as 100%. Then `CCCC(=O)c1ccc(S(=O)(=O)N2CCCN(Cc3c(-c4ccccc4)nc4sccn34)CC2)cc1` [CBK062912], with 101.093%. Then `Cc1ccc(CN(CC(=O)N2CCC(C(N)=O)CC2)S(=O)(=O)c2ccc(Br)cc2)cc1` [CBK265813], with 171.139%; and `O=C(CN1CCOCC1)Nc1ccc(S(=O)(=O)N2CCCC2)cc1` [CBK268468], with 121.768%; and `CC(=O)c1cc2c(cc1NC(=O)CSc1ccccn1)OCO2` [CBK266225], with 138.549%. The figure for `COc1cccc(-c2nc(CC(=O)N3CCC(C(=O)O)CC3)cs2)c1` [CBK286797] is 128.046%; for `O=C(Nc1ccccc1-c1nc2ccccc2[nH]1)c1ccc(S(=O)(=O)N2CCCC2)cc1` [CBK263252] it is 118.342%. With `CCOC(=O)c1ccc(S(=O)(=O)N2CCCCC2)cc1` [CBK069738], the “% of control remaining” value came out at 117.552%. Then `Cc1ccccc1-c1cncc(C2CCN(C(=O)CCOc3ccccc3)CC2)n1` [CBK286154], with 132.649%; and `OCC1CCCN1c1cncc(-c2cccnc2)n1` (stereo not drawn) [CBK065439], with 176.495%. Then `O=C(Nc1ccc(Br)cc1)C1CC(O)CN1C(=O)OCc1ccccc1` (stereo not drawn) [CBK263233], with 100.205%; and `CCn1nc2c3ccccc3nc(C3CC3)n2c1=O` [CBK284008], with 103.353%. Then `Cc1[nH]c(=O)[nH]c(=S)c1C(=O)Nc1ccc(C(F)(F)F)cc1` [CBK115510], with 114.406%. In the case of `O=C1NC2=C(C(=O)N(CC3CCCO3)C2)C(c2ccc(F)c(F)c2)N1` (stereo not drawn) [CBK282271], the “% of control remaining” value is 150.511%. With `O=C(C[C@@H]1O[C@H](CNS(=O)(=O)c2ccc(Cl)cc2)[C@@H](O)[C@H]1O)N1CCCC1` [CBK288911], the “% of control remaining” value is recorded as 90.4814%. For the molecule `O=C(CC1CCCCO1)Nc1cccc(Cn2ccnc2)c1` (stereo not drawn) [CBK282204], the “% of control remaining” value is given as 125.117%. Then `O=C(c1ccco1)N1CCN(S(=O)(=O)c2ccc3c(c2)C(=NO)c2cc(S(=O)(=O)N4CCN(C(=O)c5ccco5)CC4)ccc2-3)CC1` [CBK262103], with 106.218%; and `Cn1c(=O)oc2cc(Br)ccc21` [CBK027375], with 134.499%. Then `COc1cc(OC)cc(C(=O)Nc2cccc(-c3nc4ccccc4o3)c2)c1` [CBK097706], with 100%. The figure for `COc1ccc(-c2noc(CN(C)C(=O)c3cccs3)n2)cc1` [CBK270286] is 127.125%. As to `O=C(Cn1cnc(NCc2cscn2)n1)N1CCCCCC1` [CBK304061], the “% of control remaining” value worked out at 86.7145%. Then `Cc1nn(C)c2ncc(S(=O)(=O)Nc3ccc(F)cn3)cc12` [CBK305175], with 136.132%; and `CC(Oc1ccc(Cl)cc1Cl)C(=O)N1CCN(Cc2ccc3c(c2)OCO3)CC1` (stereo not drawn) [CBK074438], with 115.068%; and `O=C(CCCOc1ccccc1)Nc1cccnc1N1CCNCC1` [CBK028258T], with 127.881%.
